In all, about 140,000 compounds went through this assay and about 4,300 (3.1%) were called active. Inconclusive results, whose numbers are uncertain, are shown with a selection of clear calls.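 The calls were made as follows: active = readout at or below -70, meaning at least 70% loss of cells showing the perinucleolar compartment, a nuclear body marking cancer cells; inconclusive = readout between -30 and a set limit; inactive = the rest.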
Test: High Content Assay for Compounds that inhibit the Assembly of the Perinucleolar Compartment;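 also: plate controls were DMSO wells for no effect and camptothecin positive control wells for full effect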
Details: PC3M PTB-GFP, PNC prevalence imaging, 16 h; at 10 µM; active compounds read low
Text: High Content Assay for Compounds that inhibit the Assembly of the Perinucleolar Compartment NIH Chemical Genomics Center [NCGC] NIH Molecular Libraries Probe Centers Network [MLPCN] MLPCN Grant: MH082371-01A2 Assay Submitter (PI): Sui Huang, Northwestern University, Feinberg School of Medicine, Cell and Molecular Biology, Chicago, Illinois. The perinucleolar compartment (PNC) is a non-membrane-bound nuclear subdomain that is associated with but structurally distinct from the nucleolus. The PNC is a heritable trait, in which the number of PNCs per cell in daughter cells often mimics that of their mother cells. The PNC is heterogeneous in shape, is stable through interphase, disassembles during mitosis, and reassembles in early G1. The PNC is concentrated with newly synthesized RNA polymerase III (pol III) RNAs (MRP RNA, RNAse P H1 RNA, hY RNAs[hY1, 2, 5], Alu RNA, and SRP [7SL] RNA) and RNA binding proteins (nucleolin, PTB, CUG-BP, KSRP, Raver1, Raver2, and Rod). […] Extensive in vitro studies have shown that the PNC is unique to tumor cells and preferentially forms in tumor cells derived from solid tissues. Examination of cancer cell lines from various origins and malignant capacities has shown that PNC prevalence correlates with the malignancy of tumors and has the potential to be developed as a pan-cancer prognostic marker. […] Although the PNC is associated with a DNA locus and a handful of components have been identified, much remains to be investigated regarding the structure and function of the PNC and its mechanistic link to cancer. We have previously shown that PNC prevalence reduction is a valid strategy to identify compounds that can be used to study the structure and function of the PNC. It is necessary, however, to create a screening platform that is able to test a large number of compounds in an automated fashion. Here we report the development and robustness of an automated whole-cell phenotypic image-based screening assay that is capable of identifying such compounds.
PNC High Content Imaging Assay Procedure: 1. Cells at a density of 75-90% confluency in T175 flasks were harvested using 7 ml TrypLE Express cell dissociation reagent. After dissociation (5 minutes room temperature incubation) 10 ml of complete media was added to the TrypLE/cell suspension. The liquid was transferred to a 50 ml Conical tube and cells were pelleted at 1000 RPM for 5 min. Supernatant was removed and cells were resuspended to a final density of 150-200 cells/ul in complete media. 2. Cells were plated in 5 ul volume (750-1000 cells/well) into 1536 well Black uclear Aurora Low Base plates and allowed to recover and adhere at 37 C in a humidified 5% CO2 incubator for 4 hours. 3. After 4 hour incubation, compound libraries (23 nl of […] in columns 5-48) were transferred to the plates in duplicate using a 1536 well pintool. Camptothecin positive control (59 uM final) was added to column 2 and 1:3 dilutions of camptothecin was added to column 3. DMSO negative controls were present in columns 1 and 4. 4. After a 16 hour incubation in the 37 C incubator, cells were fixed by the addition of 4 ul of 6% EM grade paraformaldehyde (containing 0.1% triton X 100) directly to the cells. The plates were incubated at room temperature for 20 minutes. The liquid was removed using a 32 channel Kalypsys aspirator and the fixed cells were washed twice with 5 ul PBS followed by a final addition of 5 ul PBS containing 1 ug/ml Hoechst 33342. 5. Fixed plates were sealed and sotred at 4C until imaged. 6. Plates were imaged on an InCell 1000 automated microscope using a 20 x objective, a standard FITC filter set, no camera binning, and an exposure time of ~100-150 msec/well. 7. Data analysis. PNC prevalence was determined using the Multitarget analysis module from InCell Workstation software (V3.5 ) and analysis was run on a quad core workstation using the Incell Developer Toolbox (V1.7). […]

SMILES	activity change (PNC), negative = inhibition
COC(=O)c1c(C)[nH]c(C(=O)OCC(=O)N2c3ccccc3NC(=O)C2(C)C)c1C	inconclusive: -54.8%
CCCCOC(=O)Nc1ccc(N2CCCCC2)cc1	inactive: -16.3%
Cn1c(C(=O)N2CCCCCC2)cc2c(=O)n(C)c3ccccc3c21	inconclusive: -30.2%
CCOc1cc(/C=N/NC(=O)c2nn(C)cc2Br)ccc1OCc1ccccc1	inconclusive: -40.1%
O=C1CC(N2CCOCC2)C(=O)N1CCc1ccccc1 (configuration not stated)	inconclusive: -32.6%
Cc1nn(Cc2ccc(Cl)cc2)c(C)c1NC(=O)c1ccc([N+](=O)[O-])cc1	active: -83.9%
Cc1ccsc1/C=N/NS(=O)(=O)c1ccc([N+](=O)[O-])cc1	inactive: -2.48%
COC(=O)c1ccccc1NC(=S)NC(NC(=O)COc1ccccc1)C(Cl)(Cl)Cl (configuration not stated)	inactive: 68.3%
CCN(CC)S(=O)(=O)c1ccc(N2CCCCC2)c(NC(=O)/C=C/c2cc(OC)c(OC)c(OC)c2)c1	inconclusive: -35.8%
Cc1cc[n+](-c2nc3ccccc3nc2[N-]S(=O)(=O)c2cccs2)cc1C	inactive: 5.21%
Cc1nc(-c2ccccn2)sc1C(=O)Nc1ccc(F)cc1	inactive: 76%
O=C(COc1ccc(Br)cc1)N1CCC(c2ccccc2)C1 (configuration not stated)	inconclusive: -33.3%
CN(C)CCCNC(CC(=O)Nc1cccc([N+](=O)[O-])c1)C(=O)O (configuration not stated)	inactive: -11.9%
CCn1c2c(c3cc(C(=O)O)ccc31)CCCC2=O	inconclusive: -49%
COC(=O)CSc1nc2c(c(C3CC=CCC3)c1C#N)CCC2 (configuration not stated)	inconclusive: -52.5%
Cc1cc(Cl)ccc1OCCCC(=O)NCC1CCCO1 (configuration not stated)	inconclusive: -38.8%
COc1ccc(C(=O)N/C(=C\c2ccc3c(c2)OCO3)C(=O)NCCc2nc3ccccc3[nH]2)cc1	inactive: -2.04%
COc1cc(/C=N/Nc2nc(N3CCCC3)nc(N3CCCC3)n2)ccc1O	inconclusive: -54.8%
C=CCNC(=S)Nc1cccc2ccccc12	active: -96.5%

SMILES	activity change (PNC), negative = inhibition
N=c1oc2c3c4c(cc2cc1C(=O)Nc1ccccc1)CCCN4CCC3	inconclusive: -49.7%
CCOc1ccc(Cl)cc1/C=N/NC(=O)CNC(=O)c1ccccc1	inactive: -15.7%
CC1CCCN(c2ccc(C(=O)NCc3cccs3)cn2)C1 (configuration not stated)	inconclusive: -57.3%
COc1cccc(C(=O)Oc2ccccc2/C=C\C(=O)c2cc3ccccc3o2)c1	inactive: 24.8%
CCSC1=NSC2=NC(=O)/C(=C\c3coc4ccccc4c3=O)C(=N)N12	inconclusive: -35.9%
OC[C@H]1O[C@@H](n2cnc3c(Nc4ccccc4)ncnc32)[C@H](O)[C@@H]1O	inconclusive: -32.8%
CCOc1ccccc1C1CC(=O)NC2=C1C(=O)CCC2 (configuration not stated)	inconclusive: -61.9%
CCCCN(C)C1=CC2=CC(=C(C#N)C#N)CCC2CC1 (configuration not stated)	active: -82.6%
CN(C)S(=O)(=O)N1CCC(C(=O)O)(c2ccccc2)CC1	inconclusive: -46%
CCN(CC)C(=O)CCCOc1ccc(Cl)cc1Cl	inactive: -29.7%
COc1ccc(C(=O)Nc2ccc(C)cn2)c(OC)c1	inconclusive: -50.8%
COc1cc2c(cc1NC(=S)NC(=O)c1c(OC)cccc1OC)oc1ccccc12	inconclusive: -37.5%
CCC(C)Nc1nc(OCC(F)(F)F)nc(OCC(F)(F)F)n1 (configuration not stated)	inactive: 50%
Cn1c(=O)[nH]c(=O)c2c1nc(Br)n2CC(O)COc1ccccc1 (configuration not stated)	inconclusive: -62.9%
Cc1ccc(C(=S)NCS(=O)(=O)c2ccc(C)cc2)cc1	inconclusive: -42.8%
COc1cccc(-c2nc3cc(C)ccc3o2)c1	inconclusive: -63.4%
Cc1cc(C)n(-c2nc(O)cc(=O)[nH]2)n1	inconclusive: -48.4%
Cc1ccc(S(=O)(=O)N2CCCC2C(=O)n2nc(C)cc2C)cc1 (configuration not stated)	inconclusive: -41.2%
Cc1cc(N2CCC(C)CC2)nc2ccc(N3C(=O)CCC3=O)cc12	inconclusive: -67%

Given bar-delimited: entries from further up.
SMILES | activity change (PNC), negative = inhibition
CCOc1ccc(Cl)cc1/C=N/NC(=O)CNC(=O)c1ccccc1 | inactive: -15.7%
CC1CCCN(c2ccc(C(=O)NCc3cccs3)cn2)C1 (configuration not stated) | inconclusive: -57.3%

Next results.

SMILES	activity change (PNC), negative = inhibition
CCN(CC)c1ccc(NC(=O)c2ccc(Br)o2)cc1	inconclusive: -54.7%
O=c1c2ccccc2[nH]c(=S)n1CCCN1CCN(C2CCCCC2)CC1	inconclusive: -54.1%
Cc1ccc(-c2nnn(CC(=O)N(CC3CCCO3)C(C(=O)NCC3CCCO3)c3ccc(F)cc3)n2)o1 (configuration not stated)	inactive: 169%
COc1cc(C2CC(=O)NC(SCC(=O)Nc3ccccc3C)=C2C#N)ccc1O (configuration not stated)	inactive: -4.57%
Fc1ccc(OCc2nc(-c3ccc(Br)o3)no2)c(F)c1	inconclusive: -34.9%
COc1ccc(Nc2nc(Nc3ccc(OC)cc3)nc(-n3[nH]c(=O)c(C)c3C)n2)cc1	inactive: 116%
CC(C)(C)NC(=O)CSCc1c(Cl)cccc1Cl	inconclusive: -50.7%
COc1ccc(NC(=O)CSc2nnc(-c3ccccc3)n2N)cc1	active: -100%
O=C1C(Cl)=C(Nc2ccccc2O)C(=O)N1c1ccccc1	inactive: -16.8%
COc1cccc(/C=N/NC(=O)CCn2c3ccccc3c3ccccc32)c1	inconclusive: -36.4%
COC(=O)c1ccc(N/C=C/C(=O)c2ccc(OC)c(OC)c2)cc1	inconclusive: -42.5%
Cc1ccc(-n2nnnc2SCC(=O)c2cc(C)n(-c3cc(C)on3)c2C)c(C)c1	inconclusive: -41%
COc1ccc(-c2nnc(SCC(=O)c3ccc(C)o3)o2)cc1	active: -119%
N#Cc1nc(Cc2cccc3ccccc23)oc1NCc1ccc(F)cc1	inactive: 25%
O=C(O)C(Cc1c[nH]c2ccccc12)NS(=O)(=O)c1cccc2nsnc12 (configuration not stated)	inconclusive: -49.5%
CCOC(=O)c1c(NC2=NS(=O)(=O)c3ccccc32)sc2c1CCCCC2	inconclusive: -37.1%
CCCc1cc(=O)n2[nH]c(-c3ccc(C)cc3)cc2n1	inactive: -2.97%
Cc1ccccc1C(=O)NNC(=S)NC(=O)c1cccnc1	inactive: -18.7%
Cc1cccc2cc(C(c3nnnn3C(C)(C)C)N3CCN(C(=O)c4ccco4)CC3)c(=O)[nH]c12 (configuration not stated)	inconclusive: -67.5%

Reference: PubChem BioAssay AID2417 (National Center for Advancing Translational Sciences (NCATS), 2010)
